Patent publication US20160176924A1, “MODIFIED PEPTIDES AS POTENT INHIBITORS OF THE PSD-95/NMDA RECEPTOR INTERACTION” (priority 2008, published 2016)
These are yes or no findings as the source states them, for the method shown. For some of these results: In cells and extracts the contact can be indirect. Some binding calls cover weakened binding; strength is not graded here. For some of these results: Sequences can lack the tags named with a protein.

Experiments:
[1] = biological target: PSD-95 PDZ2 domain without His-tag (human) (UniProt P78352); assay: polyhistidine pull-down, competition: displaces PDZ2 from the immobilised His6-NR2B bait; SDS-PAGE, silver stain
[2] = biological target: HIS-PDZ3 protein (PSD-95 PDZ3, residues 309-401, with tag …) (human) (UniProt P78352); assay: FP competition: fluorescent CRIPT probe (50 nM) on PDZ3 (5 µM)
[3] = biological target: PSD-95 PDZ2 domain without His-tag (human) (UniProt P78352); assay: polyhistidine pull-down: PDZ2 prey on immobilised His6-NR2B bait, imidazole elution, SDS-PAGE, silver stain
[4] = biological target: HIS-PDZ1 protein (PSD-95 PDZ1, residues 61-151, with tag …) (human) (UniProt P78352); assay: FP competition, alanine scan
[5] = biological target: HIS-PDZ2 protein (PSD-95 PDZ2, residues 155-249, with tag …) (human) (UniProt P78352); assay: FP competition, alanine scan

Row | binding [1] | binding [3] | binding [4] | binding [5] | Binder | binding [2]
1 | binds |  |  |  | IESDV [IESDV (7)] | no binding (tested: log(Conc/M) about -3.3)
2 |  | binds |  |  | HHHHHHYEKLSSIESDV [polyhistidine NR2B WT peptide (bait)] | 
3 |  |  | binds | binds | IASDV [Compound 10 (IESDV with Glu P^-3 replaced by Ala)] | 
4 |  |  | binds | binds | AESDV [Compound 11 (IESDV with Ile P^-4 replaced by Ala)] | 
